Experimental data published in the supplement of paper PMC10849652.
Some of the results follow.

Amino acid sequences for entries named in this document (tags omitted). A change or cut given only in a name is not applied to a line headed by its entry.
UniProt Q15366, whole entry, looked up: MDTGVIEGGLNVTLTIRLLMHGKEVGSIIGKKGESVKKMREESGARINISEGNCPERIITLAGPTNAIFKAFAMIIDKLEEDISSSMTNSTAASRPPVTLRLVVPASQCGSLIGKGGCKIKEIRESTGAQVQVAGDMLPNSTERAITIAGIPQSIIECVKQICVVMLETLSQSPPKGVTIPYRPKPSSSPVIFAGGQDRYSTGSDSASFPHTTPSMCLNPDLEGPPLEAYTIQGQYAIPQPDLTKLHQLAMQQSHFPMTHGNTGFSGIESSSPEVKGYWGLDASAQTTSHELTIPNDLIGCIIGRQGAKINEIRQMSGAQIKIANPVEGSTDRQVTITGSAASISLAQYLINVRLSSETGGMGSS
UniProt P13667: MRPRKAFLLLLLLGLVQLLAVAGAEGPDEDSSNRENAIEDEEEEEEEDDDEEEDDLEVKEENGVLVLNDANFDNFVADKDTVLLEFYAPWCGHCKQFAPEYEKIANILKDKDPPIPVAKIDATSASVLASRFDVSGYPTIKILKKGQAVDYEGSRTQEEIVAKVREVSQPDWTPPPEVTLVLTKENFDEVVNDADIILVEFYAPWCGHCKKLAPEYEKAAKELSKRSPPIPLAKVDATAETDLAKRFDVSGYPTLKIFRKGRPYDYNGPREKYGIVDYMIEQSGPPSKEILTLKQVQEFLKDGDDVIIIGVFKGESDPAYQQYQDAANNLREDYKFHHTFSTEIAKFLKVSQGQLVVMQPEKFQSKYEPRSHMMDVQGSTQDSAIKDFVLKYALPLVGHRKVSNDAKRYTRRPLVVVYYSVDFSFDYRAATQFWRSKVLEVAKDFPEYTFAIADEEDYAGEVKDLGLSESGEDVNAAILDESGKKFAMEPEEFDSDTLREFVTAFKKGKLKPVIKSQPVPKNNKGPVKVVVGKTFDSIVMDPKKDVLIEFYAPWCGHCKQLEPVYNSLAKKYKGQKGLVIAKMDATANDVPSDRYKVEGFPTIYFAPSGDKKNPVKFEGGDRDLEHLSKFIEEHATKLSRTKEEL
UniProt O75381, whole entry, looked up: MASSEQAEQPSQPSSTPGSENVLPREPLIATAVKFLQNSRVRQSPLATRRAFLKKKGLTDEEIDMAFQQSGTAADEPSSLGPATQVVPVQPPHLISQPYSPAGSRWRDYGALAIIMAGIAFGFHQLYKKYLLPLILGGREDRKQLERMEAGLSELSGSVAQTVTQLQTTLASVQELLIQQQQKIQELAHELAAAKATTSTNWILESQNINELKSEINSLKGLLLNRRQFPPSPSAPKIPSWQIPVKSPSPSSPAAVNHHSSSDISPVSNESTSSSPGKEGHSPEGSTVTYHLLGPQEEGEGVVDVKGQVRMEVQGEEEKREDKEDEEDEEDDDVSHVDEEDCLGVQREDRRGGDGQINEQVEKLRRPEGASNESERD
UniProt Q9HBI1: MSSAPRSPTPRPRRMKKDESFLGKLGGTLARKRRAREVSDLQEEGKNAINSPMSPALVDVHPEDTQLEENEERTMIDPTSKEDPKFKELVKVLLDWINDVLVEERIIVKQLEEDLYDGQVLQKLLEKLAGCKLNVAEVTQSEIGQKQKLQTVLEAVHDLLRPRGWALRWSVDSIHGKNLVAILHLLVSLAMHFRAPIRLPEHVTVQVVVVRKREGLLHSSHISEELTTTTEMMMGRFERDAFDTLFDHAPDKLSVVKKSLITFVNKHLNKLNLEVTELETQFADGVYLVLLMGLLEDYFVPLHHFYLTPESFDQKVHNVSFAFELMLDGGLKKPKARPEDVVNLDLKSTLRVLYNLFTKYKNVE
UniProt Q96HC4: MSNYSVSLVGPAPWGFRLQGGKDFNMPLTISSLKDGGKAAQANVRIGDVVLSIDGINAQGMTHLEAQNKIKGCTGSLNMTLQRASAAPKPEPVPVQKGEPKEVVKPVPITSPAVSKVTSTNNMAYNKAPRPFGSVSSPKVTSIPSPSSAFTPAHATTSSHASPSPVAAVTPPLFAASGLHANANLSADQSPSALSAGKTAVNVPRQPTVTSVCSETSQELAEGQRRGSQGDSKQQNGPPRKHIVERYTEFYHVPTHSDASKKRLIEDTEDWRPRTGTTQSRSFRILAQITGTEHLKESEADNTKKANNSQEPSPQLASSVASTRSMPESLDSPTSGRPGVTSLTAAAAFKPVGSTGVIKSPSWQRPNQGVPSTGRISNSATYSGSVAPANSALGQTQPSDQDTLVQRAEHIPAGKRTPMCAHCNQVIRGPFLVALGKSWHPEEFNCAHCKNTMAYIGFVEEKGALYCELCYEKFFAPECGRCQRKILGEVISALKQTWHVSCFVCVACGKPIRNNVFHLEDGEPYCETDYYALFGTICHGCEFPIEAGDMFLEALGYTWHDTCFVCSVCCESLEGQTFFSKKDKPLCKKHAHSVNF
UniProt P56645: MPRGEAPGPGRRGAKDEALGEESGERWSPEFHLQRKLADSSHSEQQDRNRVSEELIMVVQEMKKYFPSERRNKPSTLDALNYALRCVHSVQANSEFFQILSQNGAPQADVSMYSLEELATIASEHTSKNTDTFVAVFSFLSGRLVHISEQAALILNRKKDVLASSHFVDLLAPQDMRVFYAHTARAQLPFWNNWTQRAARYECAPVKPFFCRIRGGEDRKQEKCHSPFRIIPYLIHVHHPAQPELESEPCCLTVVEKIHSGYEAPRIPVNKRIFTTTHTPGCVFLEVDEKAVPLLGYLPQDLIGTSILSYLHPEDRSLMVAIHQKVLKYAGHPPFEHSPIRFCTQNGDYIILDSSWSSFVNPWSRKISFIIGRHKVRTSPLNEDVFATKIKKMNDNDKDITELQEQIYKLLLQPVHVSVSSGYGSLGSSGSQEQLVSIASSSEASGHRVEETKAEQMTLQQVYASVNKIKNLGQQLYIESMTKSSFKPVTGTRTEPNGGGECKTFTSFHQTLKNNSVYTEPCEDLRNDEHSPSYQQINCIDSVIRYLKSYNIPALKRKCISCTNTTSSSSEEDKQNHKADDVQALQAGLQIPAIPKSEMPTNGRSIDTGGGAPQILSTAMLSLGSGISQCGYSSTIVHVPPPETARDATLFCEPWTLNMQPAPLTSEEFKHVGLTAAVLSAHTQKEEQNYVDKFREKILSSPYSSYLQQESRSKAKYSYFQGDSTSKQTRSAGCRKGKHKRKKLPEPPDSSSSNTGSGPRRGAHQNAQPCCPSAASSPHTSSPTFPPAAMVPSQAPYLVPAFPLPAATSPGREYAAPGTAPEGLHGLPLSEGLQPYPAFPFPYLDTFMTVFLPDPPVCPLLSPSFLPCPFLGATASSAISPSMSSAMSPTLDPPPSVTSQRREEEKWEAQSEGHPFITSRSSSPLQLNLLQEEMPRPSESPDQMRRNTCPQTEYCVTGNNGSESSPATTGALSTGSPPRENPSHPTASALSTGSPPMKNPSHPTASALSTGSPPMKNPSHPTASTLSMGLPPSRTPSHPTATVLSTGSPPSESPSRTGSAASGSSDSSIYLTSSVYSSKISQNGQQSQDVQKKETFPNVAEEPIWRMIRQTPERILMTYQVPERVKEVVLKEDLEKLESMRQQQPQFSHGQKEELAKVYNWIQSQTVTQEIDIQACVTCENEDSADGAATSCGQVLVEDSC
UniProt Q9H0N5: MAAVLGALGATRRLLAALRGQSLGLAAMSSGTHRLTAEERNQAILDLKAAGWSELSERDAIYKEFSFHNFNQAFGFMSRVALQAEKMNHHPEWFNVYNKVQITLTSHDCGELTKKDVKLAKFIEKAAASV
UniProt H7BZJ3: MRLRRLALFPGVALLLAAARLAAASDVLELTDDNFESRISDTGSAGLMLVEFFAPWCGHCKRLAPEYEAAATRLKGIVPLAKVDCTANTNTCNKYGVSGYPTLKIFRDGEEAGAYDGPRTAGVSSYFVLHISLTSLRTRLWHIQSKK
UniProt P09874, whole entry, looked up: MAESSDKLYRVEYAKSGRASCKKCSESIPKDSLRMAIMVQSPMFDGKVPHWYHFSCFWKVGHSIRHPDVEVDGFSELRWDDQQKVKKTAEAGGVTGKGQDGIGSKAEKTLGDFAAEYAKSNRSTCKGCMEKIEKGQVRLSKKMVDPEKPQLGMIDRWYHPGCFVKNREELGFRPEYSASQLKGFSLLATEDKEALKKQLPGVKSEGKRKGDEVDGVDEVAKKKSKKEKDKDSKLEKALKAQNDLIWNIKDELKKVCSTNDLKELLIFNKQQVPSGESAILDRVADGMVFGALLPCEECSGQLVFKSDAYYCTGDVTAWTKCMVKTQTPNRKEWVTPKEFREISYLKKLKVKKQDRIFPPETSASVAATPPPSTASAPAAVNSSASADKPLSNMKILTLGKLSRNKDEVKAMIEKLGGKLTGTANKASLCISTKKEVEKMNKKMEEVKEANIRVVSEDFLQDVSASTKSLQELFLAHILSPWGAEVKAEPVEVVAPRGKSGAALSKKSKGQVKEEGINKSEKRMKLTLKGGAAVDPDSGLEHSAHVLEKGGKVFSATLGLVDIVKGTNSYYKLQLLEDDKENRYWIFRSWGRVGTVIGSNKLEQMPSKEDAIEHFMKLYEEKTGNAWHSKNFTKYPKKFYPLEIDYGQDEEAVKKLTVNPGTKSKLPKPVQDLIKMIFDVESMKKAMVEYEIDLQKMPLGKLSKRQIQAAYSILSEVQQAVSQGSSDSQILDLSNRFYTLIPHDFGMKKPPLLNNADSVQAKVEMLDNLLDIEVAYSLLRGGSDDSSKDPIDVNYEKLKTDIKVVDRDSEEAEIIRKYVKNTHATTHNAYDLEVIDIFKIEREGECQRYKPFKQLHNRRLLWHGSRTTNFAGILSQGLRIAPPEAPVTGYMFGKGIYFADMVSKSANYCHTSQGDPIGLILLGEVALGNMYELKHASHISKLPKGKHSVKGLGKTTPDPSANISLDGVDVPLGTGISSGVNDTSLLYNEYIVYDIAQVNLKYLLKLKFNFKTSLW
UniProt P35227: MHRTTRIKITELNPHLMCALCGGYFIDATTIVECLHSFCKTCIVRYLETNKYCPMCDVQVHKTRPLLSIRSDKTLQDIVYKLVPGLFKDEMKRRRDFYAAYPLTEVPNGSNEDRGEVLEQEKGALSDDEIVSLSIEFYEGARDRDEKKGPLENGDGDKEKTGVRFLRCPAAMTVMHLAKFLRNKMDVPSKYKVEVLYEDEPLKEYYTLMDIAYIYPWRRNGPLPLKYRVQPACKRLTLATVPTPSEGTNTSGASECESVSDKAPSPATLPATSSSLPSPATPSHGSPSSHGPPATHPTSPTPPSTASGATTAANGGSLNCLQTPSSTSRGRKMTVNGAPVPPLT
UniProt Q29RF7: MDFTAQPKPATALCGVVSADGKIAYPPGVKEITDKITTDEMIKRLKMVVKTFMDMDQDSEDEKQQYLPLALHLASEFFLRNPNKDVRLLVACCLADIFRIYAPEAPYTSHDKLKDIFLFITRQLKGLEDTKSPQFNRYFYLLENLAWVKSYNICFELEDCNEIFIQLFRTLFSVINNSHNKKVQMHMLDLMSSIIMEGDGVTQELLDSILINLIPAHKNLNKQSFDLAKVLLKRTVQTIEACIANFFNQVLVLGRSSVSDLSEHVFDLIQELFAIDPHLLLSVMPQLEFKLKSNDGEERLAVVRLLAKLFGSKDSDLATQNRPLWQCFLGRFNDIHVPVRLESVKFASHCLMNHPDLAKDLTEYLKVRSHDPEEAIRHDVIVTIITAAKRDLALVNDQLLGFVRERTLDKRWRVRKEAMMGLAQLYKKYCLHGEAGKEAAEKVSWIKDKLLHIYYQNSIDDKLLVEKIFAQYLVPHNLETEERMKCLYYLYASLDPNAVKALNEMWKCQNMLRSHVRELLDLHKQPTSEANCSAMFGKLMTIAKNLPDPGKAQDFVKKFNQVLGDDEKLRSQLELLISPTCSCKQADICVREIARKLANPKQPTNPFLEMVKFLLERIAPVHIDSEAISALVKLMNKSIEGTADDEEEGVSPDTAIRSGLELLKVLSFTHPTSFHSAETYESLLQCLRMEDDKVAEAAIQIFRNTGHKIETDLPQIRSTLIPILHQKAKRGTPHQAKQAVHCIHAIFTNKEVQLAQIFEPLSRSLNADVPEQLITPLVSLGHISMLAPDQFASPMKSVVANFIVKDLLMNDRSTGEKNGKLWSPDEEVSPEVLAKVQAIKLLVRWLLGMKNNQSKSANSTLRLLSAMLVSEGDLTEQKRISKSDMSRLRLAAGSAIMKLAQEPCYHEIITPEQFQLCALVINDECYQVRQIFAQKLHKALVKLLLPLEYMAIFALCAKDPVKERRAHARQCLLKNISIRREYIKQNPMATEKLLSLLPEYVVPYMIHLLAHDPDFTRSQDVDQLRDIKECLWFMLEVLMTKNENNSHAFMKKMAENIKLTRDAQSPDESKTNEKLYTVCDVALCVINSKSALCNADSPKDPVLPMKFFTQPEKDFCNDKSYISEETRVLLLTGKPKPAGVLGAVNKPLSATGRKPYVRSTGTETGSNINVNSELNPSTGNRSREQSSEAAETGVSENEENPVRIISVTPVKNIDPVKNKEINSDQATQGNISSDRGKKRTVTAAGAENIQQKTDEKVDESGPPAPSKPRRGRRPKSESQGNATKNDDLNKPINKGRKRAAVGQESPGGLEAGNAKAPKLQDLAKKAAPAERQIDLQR

Tests used:
Assay in all cases: log2 fold change, soluble protein after heating vs DMSO (PISA); higher = thermal stabilisation; K562 lysate, 10 uM; active = over 0.2 and 3.5 SD of the protein, either way, in both replicates (recomputed)
[1] = compound: NCC(=O)Nc1ccc(-n2nc(C(F)(F)F)cc2-c2ccc3c(ccc4ccccc43)c2)cc1
Outline: (§1)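 Thermal stability, expressed as log-two fold change relative to solvent controls, is given from duplicates. Crude K562 extract in PBS pH 7.4 with 1 mM MgCl2, at 1 mg/mL protein, was treated with 10 μM compound for 30 min and heated in aliquots for 3 min across 48°C-58°C. After pooling, adjustment to 0.5% NP-40 at 4°C and centrifugation at 21,000xg for 90 min, supernatant protein was measured by TMTpro 16plex LC-MS/MS with channel sums equalised.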

vorinostat = compound: O=C(CCCCCCC(=O)Nc1ccccc1)NO [vorinostat]
Outline: as §1

silmitasertib = compound: O=C(O)c1ccc2c(c1)nc(Nc1cccc(Cl)c1)c1ccncc12 [silmitasertib]
Outline: as §1

[2] = compound: O=C1NC(=O)C(c2cnc3ccccn23)=C1c1cn2c3c(cc(F)cc13)CN(C(=O)N1CCCCC1)CC2
Outline: as §1

entospletinib = compound: c1cn2cc(-c3ccc4cn[nH]c4c3)nc(Nc3ccc(N4CCOCC4)cc3)c2n1 [entospletinib]
Outline: as §1

| Target | log2 fold change [1] | log2 fold change (vorinostat) | log2 fold change (silmitasertib) | log2 fold change [2] | log2 fold change (entospletinib) |
| --- | --- | --- | --- | --- | --- |
| PDCD2L (UniProt Q9BRP1) | inactive: 0.011 | inactive: -0.065 | inactive: -0.008 | inactive: 0.016 | inactive: -0.009 |
| PCBP2 isoform 8 (UniProt Q15366) | inactive: -0.06 | active: -0.489 | inactive: -0.037 | inactive: 0.054 | inactive: -0.091 |
| PCYOX1 (UniProt Q9UHG3) | inactive: -0.008 | inactive: 0.144 | inactive: -0.04 | inactive: -0.03 | inactive: -0.052 |
| PEX13 (UniProt Q92968) | inactive: 0.017 | inactive: 0.219 | inactive: 0.064 | inactive: 0.028 | inactive: -0.014 |
| PDLIM7 (UniProt Q9NR12) | inactive: -0.01 | inactive: 0.075 | inactive: 0.001 | inactive: 0.016 | inactive: 0.003 |
| PARS2 (UniProt Q7L3T8) | inactive: -0.006 | inactive: 0.033 | inactive: -0.023 | inactive: 0.013 | inactive: -0.02 |
| PAXIP1 (UniProt Q6ZW49) | inactive: -0.001 | inactive: -0.146 | inactive: 0.027 | inactive: -0.089 | inactive: -0.038 |
| PAXX (UniProt Q9BUH6) | inactive: -0.019 | inactive: 0.031 | inactive: -0.018 | inactive: -0.026 | inactive: 0.019 |
| PDIA4 (UniProt P13667) | inactive: 0.001 | inactive: 0.119 | inactive: -0.011 | inactive: 0.021 | inactive: 0.004 |
| PBXIP1 (UniProt Q96AQ6) | inactive: 0.01 | inactive: 0.07 | inactive: -0.064 | inactive: 0.01 | inactive: 0 |
| PCBP1 (UniProt Q15365) | inactive: 0.01 | inactive: -0.123 | inactive: -0.029 | inactive: 0.01 | inactive: 0.001 |
| PCBP2 (UniProt H3BRU6) | inactive: 0.139 | active: -0.662 | inactive: -0.102 | inactive: -0.053 | inactive: 0.061 |
| PDLIM4 (UniProt P50479) | inactive: 0.05 | inactive: -0.041 | inactive: 0.016 | inactive: 0.028 | inactive: -0.017 |
| PDPR (UniProt Q8NCN5) | inactive: 0.004 | inactive: 0.119 | inactive: 0.037 | inactive: -0.032 | inactive: 0.058 |
| PCGF5 (UniProt Q86SE9) | inactive: -0.036 | inactive: -0.148 | inactive: 0.038 | inactive: 0.043 | inactive: 0.134 |
| PEX14 (UniProt O75381) | inactive: -0.002 | inactive: 0.019 | inactive: 0.019 | inactive: -0.029 | inactive: 0 |
| PASK (UniProt Q96RG2) | inactive: -0.054 | inactive: -0.017 | inactive: 0.107 | inactive: 0.018 | inactive: -0.012 |
| PARVB (UniProt Q9HBI1) | inactive: -0.036 | inactive: -0.088 | inactive: 0.045 | inactive: -0.04 | inactive: -0.006 |
| PEX16 isoform 2 (UniProt Q9Y5Y5) | inactive: -0.268 | inactive: 0.101 | inactive: -0.015 | inactive: 0.077 | inactive: -0.028 |
| PFKP (UniProt Q01813) | inactive: 0.004 | inactive: 0.009 | inactive: 0.008 | inactive: 0.03 | inactive: 0.049 |
| PFKM isoform 3 (UniProt P08237) | inactive: 0.004 | inactive: -0.06 | inactive: -0.075 | inactive: -0.006 | inactive: 0.021 |
| PFDN4 (UniProt Q9NQP4) | inactive: 0.011 | inactive: 0.105 | inactive: 0.005 | inactive: 0.03 | inactive: -0.037 |
| PBDC1 (UniProt Q9BVG4) | inactive: 0 | inactive: 0.122 | inactive: -0.013 | inactive: -0.018 | inactive: -0.026 |
| PDK1 (UniProt Q15118) | inactive: 0.194 | inactive: -0.003 | inactive: 0.082 | inactive: -0.094 | inactive: -0.223 |
| PDSS1 (UniProt Q5T2R2) | inactive: -0.013 | inactive: 0.241 | inactive: -0.044 | inactive: -0.037 | inactive: -0.026 |
| PDIA5 (UniProt Q14554) | inactive: -0.009 | inactive: 0.086 | inactive: -0.015 | inactive: 0.017 | inactive: -0.009 |
| PDLIM5 (UniProt Q96HC4) | inactive: -0.008 | inactive: 0.082 | inactive: -0.046 | inactive: 0.004 | inactive: -0.018 |

Whole records, quoted from the list:
PFKP (UniProt Q01813) is listed as log2 fold change [1]: inactive: 0.004; log2 fold change (vorinostat): inactive: 0.009; log2 fold change (silmitasertib): inactive: 0.008; log2 fold change [2]: inactive: 0.03; log2 fold change (entospletinib): inactive: 0.049
PCYOX1 (UniProt Q9UHG3) is listed as log2 fold change [1]: inactive: -0.008; log2 fold change (vorinostat): inactive: 0.144; log2 fold change (silmitasertib): inactive: -0.04; log2 fold change [2]: inactive: -0.03; log2 fold change (entospletinib): inactive: -0.052
PDIA5 (UniProt Q14554) is listed as log2 fold change [1]: inactive: -0.009; log2 fold change (vorinostat): inactive: 0.086; log2 fold change (silmitasertib): inactive: -0.015; log2 fold change [2]: inactive: 0.017; log2 fold change (entospletinib): inactive: -0.009
PCBP1 (UniProt Q15365) is listed as log2 fold change [1]: inactive: 0.01; log2 fold change (vorinostat): inactive: -0.123; log2 fold change (silmitasertib): inactive: -0.029; log2 fold change [2]: inactive: 0.01; log2 fold change (entospletinib): inactive: 0.001

(cont.)

| Target | log2 fold change [1] | log2 fold change (vorinostat) | log2 fold change (silmitasertib) | log2 fold change [2] | log2 fold change (entospletinib) |
| --- | --- | --- | --- | --- | --- |
| PER3 isoform 2 (UniProt P56645) | inactive: -0.164 | inactive: 0.06 | inactive: -0.05 | inactive: -0.021 | inactive: -0.009 |
| PELO (UniProt Q9BRX2) | inactive: 0.021 | active: -0.495 | inactive: 0.058 | inactive: 0.02 | inactive: 0.006 |
| PCLO (UniProt Q9Y6V0) | inactive: 0.126 | inactive: 0.137 | inactive: -0.014 | inactive: 0.125 | inactive: 0.027 |
| PC (UniProt P11498) | inactive: -0.024 | inactive: -0.152 | inactive: 0.027 | inactive: -0.026 | inactive: -0.012 |
| PDCD2 (UniProt Q16342) | inactive: 0.005 | inactive: -0.093 | inactive: 0.005 | inactive: -0.035 | inactive: 0.014 |
| PCBD2 (UniProt Q9H0N5) | inactive: 0.008 | inactive: 0.034 | inactive: 0.01 | inactive: -0.006 | inactive: 0.003 |
| PDHX (UniProt O00330) | inactive: 0.026 | inactive: 0.018 | inactive: -0.023 | inactive: -0.012 | inactive: 0.025 |
| PCLAF (UniProt Q15004) | inactive: 0.022 | active: -0.29 | inactive: -0.029 | inactive: -0.025 | inactive: 0.009 |
| PDIA3 (UniProt H7BZJ3) | inactive: 0.051 | inactive: 0.103 | inactive: 0.161 | inactive: 0.043 | inactive: 0.117 |
| PARP1 (UniProt P09874) | inactive: -0.003 | inactive: -0.205 | inactive: 0.033 | inactive: 0.004 | inactive: 0.045 |
| PGAM4 (UniProt Q8N0Y7) | inactive: 0.008 | inactive: 0.149 | inactive: -0.029 | inactive: 0.005 | inactive: 0.028 |
| PDCL3 (UniProt Q9H2J4) | inactive: 0.074 | inactive: 0.123 | inactive: 0.004 | inactive: -0.011 | inactive: -0.001 |
| PCGF2 (UniProt P35227) | inactive: 0.028 | inactive: -0.047 | inactive: 0.031 | inactive: -0.033 | inactive: -0.091 |
| PDCD11 (UniProt Q14690) | inactive: 0.064 | inactive: -0.032 | inactive: 0.003 | inactive: 0.058 | inactive: 0.029 |
| PCTP (UniProt Q9UKL6) | inactive: 0.003 | inactive: 0.111 | inactive: 0.019 | inactive: -0.043 | inactive: 0 |
| PARP2 (UniProt Q9UGN5) | inactive: 0.051 | inactive: -0.18 | inactive: -0.088 | inactive: 0.051 | inactive: 0.032 |
| PATL1 (UniProt Q86TB9) | inactive: -0.016 | inactive: 0.075 | inactive: -0.011 | inactive: 0.053 | inactive: -0.019 |
| PFDN5 (UniProt Q99471) | inactive: -0.053 | inactive: 0.214 | inactive: -0.048 | inactive: 0.083 | inactive: -0.088 |
| PDCL (UniProt Q13371) | inactive: -0.01 | inactive: -0.083 | inactive: 0.003 | inactive: -0.009 | inactive: -0.004 |
| PCBP2 isoform 3 (UniProt Q15366) | inactive: -0.071 | active: -0.252 | inactive: 0.042 | inactive: -0.035 | inactive: 0.01 |
| PDE12 (UniProt Q6L8Q7) | inactive: -0.007 | inactive: 0.014 | inactive: 0.001 | inactive: 0.005 | inactive: 0.041 |
| PDE4A (UniProt P27815) | inactive: -0.118 | inactive: -0.133 | inactive: 0.023 | inactive: -0.035 | inactive: -0.017 |
| PDCD6 (UniProt O75340) | inactive: -0.118 | inactive: 0.114 | inactive: -0.014 | inactive: 0.002 | inactive: 0.026 |
| PDS5A (UniProt Q29RF7) | inactive: -0.001 | active: -0.525 | inactive: 0.073 | inactive: -0.01 | inactive: 0.047 |
| PDCD5 (UniProt O14737) | inactive: -0.007 | inactive: 0.124 | inactive: -0.009 | inactive: -0.032 | inactive: -0.042 |
| PCCA (UniProt P05165) | inactive: -0.018 | inactive: 0.137 | inactive: 0.045 | inactive: -0.02 | inactive: -0.036 |
